Results: PMC12000689
Residue numbers refer to the chain shown, from its start. Names and notes keep the numbering of the source. Results are given in words; binding and its absence hold for the method and conditions named. Binding seen in cells or lysates may run through a third protein. Some entries that bind do so weakly or less than the wild type.

T1: ATP9B (UniProt O43861)
T1 sequence: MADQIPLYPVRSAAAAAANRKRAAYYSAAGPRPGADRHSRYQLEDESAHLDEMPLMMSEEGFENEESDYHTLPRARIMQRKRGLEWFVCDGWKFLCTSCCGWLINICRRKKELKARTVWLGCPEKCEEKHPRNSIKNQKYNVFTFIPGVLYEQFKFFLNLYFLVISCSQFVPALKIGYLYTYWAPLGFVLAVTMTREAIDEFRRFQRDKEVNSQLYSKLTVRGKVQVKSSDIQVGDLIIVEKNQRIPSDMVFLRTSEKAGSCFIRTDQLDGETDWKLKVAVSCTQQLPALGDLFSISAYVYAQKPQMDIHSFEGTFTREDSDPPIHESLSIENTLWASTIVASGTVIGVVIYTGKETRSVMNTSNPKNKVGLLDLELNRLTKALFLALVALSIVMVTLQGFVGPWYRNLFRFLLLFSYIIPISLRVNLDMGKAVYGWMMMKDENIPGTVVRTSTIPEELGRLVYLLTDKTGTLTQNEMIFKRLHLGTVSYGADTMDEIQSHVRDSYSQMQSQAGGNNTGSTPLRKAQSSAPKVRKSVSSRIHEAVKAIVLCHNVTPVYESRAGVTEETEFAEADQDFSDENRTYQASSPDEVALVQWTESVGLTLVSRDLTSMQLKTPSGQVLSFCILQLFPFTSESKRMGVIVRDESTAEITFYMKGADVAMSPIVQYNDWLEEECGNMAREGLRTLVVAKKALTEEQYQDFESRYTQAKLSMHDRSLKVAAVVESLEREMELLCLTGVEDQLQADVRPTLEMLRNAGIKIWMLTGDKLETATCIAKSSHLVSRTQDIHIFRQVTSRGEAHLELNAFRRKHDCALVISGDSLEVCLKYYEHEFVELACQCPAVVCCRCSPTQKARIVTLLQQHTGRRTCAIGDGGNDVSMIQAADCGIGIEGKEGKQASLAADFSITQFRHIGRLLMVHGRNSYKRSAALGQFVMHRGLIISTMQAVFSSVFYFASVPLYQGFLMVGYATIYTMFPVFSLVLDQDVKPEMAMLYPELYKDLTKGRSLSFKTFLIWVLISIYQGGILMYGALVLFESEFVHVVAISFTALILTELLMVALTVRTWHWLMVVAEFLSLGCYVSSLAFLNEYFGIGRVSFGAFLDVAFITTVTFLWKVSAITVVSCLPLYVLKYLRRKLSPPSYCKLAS

T2: ATP9A (UniProt O75110)
T2 sequence: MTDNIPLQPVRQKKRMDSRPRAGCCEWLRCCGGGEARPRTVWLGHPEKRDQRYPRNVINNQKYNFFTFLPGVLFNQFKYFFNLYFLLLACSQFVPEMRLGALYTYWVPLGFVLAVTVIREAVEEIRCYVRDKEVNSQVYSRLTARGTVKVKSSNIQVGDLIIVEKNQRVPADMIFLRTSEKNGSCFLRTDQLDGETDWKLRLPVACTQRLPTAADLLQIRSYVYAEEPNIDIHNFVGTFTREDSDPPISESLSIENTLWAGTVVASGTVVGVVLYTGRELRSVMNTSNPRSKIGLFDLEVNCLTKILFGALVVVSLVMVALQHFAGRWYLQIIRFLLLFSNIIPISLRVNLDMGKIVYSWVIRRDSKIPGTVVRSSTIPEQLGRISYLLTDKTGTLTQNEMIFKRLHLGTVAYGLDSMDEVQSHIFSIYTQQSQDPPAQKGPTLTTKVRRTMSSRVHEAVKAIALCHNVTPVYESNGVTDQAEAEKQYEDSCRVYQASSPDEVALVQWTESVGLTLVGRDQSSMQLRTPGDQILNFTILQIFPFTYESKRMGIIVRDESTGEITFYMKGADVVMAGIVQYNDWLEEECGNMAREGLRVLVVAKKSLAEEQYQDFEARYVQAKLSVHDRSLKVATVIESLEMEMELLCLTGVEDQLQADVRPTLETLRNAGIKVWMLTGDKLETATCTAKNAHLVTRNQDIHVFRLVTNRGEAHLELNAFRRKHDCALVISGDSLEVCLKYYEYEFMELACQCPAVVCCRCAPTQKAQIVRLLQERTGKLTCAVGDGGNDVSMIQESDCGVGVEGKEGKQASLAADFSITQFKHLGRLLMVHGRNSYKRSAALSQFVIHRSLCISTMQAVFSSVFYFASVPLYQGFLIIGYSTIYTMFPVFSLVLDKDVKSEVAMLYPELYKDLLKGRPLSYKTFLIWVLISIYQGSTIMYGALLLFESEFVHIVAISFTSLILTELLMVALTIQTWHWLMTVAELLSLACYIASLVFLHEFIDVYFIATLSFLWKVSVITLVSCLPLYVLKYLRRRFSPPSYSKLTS

B1: ATP9A (protein, UniProt O75110 1-1047)
chain: T2 sequence
B2: ATP9B (protein, UniProt O43861 1-1147)
chain: T1 sequence
B3: ATP9A(E195Q) (protein, UniProt O75110 1-1047)
chain: T2 sequence with E195Q

How the values were obtained:
ATP9B = target: T1, ATP9B; assay: co-IP; lysates of HeLa cells stably coexpressing an HA-tagged and a FLAG-tagged P4-ATPase; lysis in 20 mM Hepes pH 7.4, 150 mM NaCl, 1 mM EDTA, 1% Nonidet P-40, 4°C; anti-HA antibody and protein G Dynabeads; blot with anti-HA and anti-DYKDDDDK
ATP9A = target: T2, ATP9A; assay: as above

Binder | binding (ATP9B) | binding (ATP9A)
B1 | binds | binds
B2 | binds | binds
B3 | binds | binds
